# Results from PMC7819943, “Rice protein-binding microarrays: a tool to detect cis-acting elements near promoter regions in rice”.
# Chains of the proteins cited; added tags and fusions are not shown.
# UniProt Q0JBA9, entry or part of it: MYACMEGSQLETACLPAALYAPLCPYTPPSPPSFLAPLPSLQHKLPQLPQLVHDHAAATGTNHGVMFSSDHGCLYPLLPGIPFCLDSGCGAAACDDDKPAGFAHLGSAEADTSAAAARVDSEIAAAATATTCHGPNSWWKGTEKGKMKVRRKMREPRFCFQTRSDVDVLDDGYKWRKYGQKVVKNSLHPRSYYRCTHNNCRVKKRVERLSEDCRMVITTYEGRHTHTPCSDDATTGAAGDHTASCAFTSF
# The other results are listed elsewhere or left out.
# Biological target: OsWRKY34 (Oryza sativa, UniProt Q0JBA9 1-250)
# Assay: protein-binding microarray (RPBM); PBS, 2% BSA, 51.3 ng/ul salmon testes DNA, 50 uM zinc acetate, 200 nM TF, 25 C, 1 h; high values mean tight binding
# Details: protein: recombinant; tags: N-terminal polyhistidine and DsRed monomer fusion (pET32a); label: CyDye5-dUTP incorporated in the synthesized complementary strand; 3' TTTTT single-stranded linker to array surface; dsDNA, one strand shown
# In short: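 The binding signal is fluorescence intensity per feature, in arbitrary units, read on an Axon 4000B scanner. Polyhistidine- and DsRed-tagged transcription factors (N-terminal fusions) from E. coli BL21-CodonPlus were purified on Ni–NTA and applied at 200 nM for 1 h at 25 °C to a double-stranded, BSA-blocked custom Agilent array in buffer with 50 µM zinc acetate.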
row,Sequence,binding signal
1,TCCACTAAACTGGTCCGTCACCCTCGCTGCCCGCTCTGAGCGGAGTCACCTAGTGCAG,9330 fluorescence intensity (a.u.)
2,TGTGTGTGTCTCAGTCCTCGTTTCTCTTCTCCGGCCGCCGCGGAGTCACCTAGTGCAG,11500 fluorescence intensity (a.u.)
3,ACTTGTAGCGCTTGGAAAGTTCTGTAGTTGTTTTTTTGCCCGGAGTCACCTAGTGCAG,8550 fluorescence intensity (a.u.)
4,TCGCAACTCCACCTTCTTCCCACGCTCTATTGGGTTTAAACGGAGTCACCTAGTGCAG,8810 fluorescence intensity (a.u.)
5,CCCGAGATCCCACCCACCGCATCCGACTATCCGAGACGAGCGGAGTCACCTAGTGCAG,9570 fluorescence intensity (a.u.)
6,ATCCTGGAAGCTTGCTGCTGCTGCCTTTTTTATTAATCTCCGGAGTCACCTAGTGCAG,8330 fluorescence intensity (a.u.)
7,AGGTGTGATTATTGTTCTGTTTGGCGCCATTATTATCTAACGGAGTCACCTAGTGCAG,11200 fluorescence intensity (a.u.)
8,CAAGCTCGCCGGCCCCGCCCAGATCGGCGGCCTCCGGCGCCGGAGTCACCTAGTGCAG,8380 fluorescence intensity (a.u.)
9,AATATCTTTGTGTCTGTCTGTCTCTTGCTGGACTCTGCTTCGGAGTCACCTAGTGCAG,11000 fluorescence intensity (a.u.)
10,CGCGGCGCGGCGTGGGTGGGTGTGTGTGGCCGCCTTAAACCGGAGTCACCTAGTGCAG,8460 fluorescence intensity (a.u.)
11,AACTGGTTCATTCGTAAACTAGTCCTATCAGATCTGTTTGCGGAGTCACCTAGTGCAG,8180 fluorescence intensity (a.u.)
12,ATTCCATAGTAATATTTGTCTTGTCCTACTTCTGATTTCTCGGAGTCACCTAGTGCAG,12500 fluorescence intensity (a.u.)
13,CCGGGTGGTTGGGTTTGGTGCTTTCCGATAGGCACGAGCTCGGAGTCACCTAGTGCAG,8860 fluorescence intensity (a.u.)
14,GTAGTAGTTTGGTAATAGTAGTAGGGGTGCCTTATTTTTTCGGAGTCACCTAGTGCAG,9370 fluorescence intensity (a.u.)
15,GTCAAACATGTGCTAAAAAGTCAACGGCGTCAAACATTTTCGGAGTCACCTAGTGCAG,13300 fluorescence intensity (a.u.)
16,CTTCTTCCACTTGAAGCTTTTTCTCTCTTGGTCTTATCCTCGGAGTCACCTAGTGCAG,9690 fluorescence intensity (a.u.)
17,TCGCTTTCCATCCTTCTCATGCTGTCAATTTATCAGTCAACGGAGTCACCTAGTGCAG,11300 fluorescence intensity (a.u.)
18,GTCCGCTTCCATTGGGAGCGCGGCTACTGGCTGGGTTTACCGGAGTCACCTAGTGCAG,8770 fluorescence intensity (a.u.)
19,TAGTCAATTACCACTTCGTCTCTGCATATGTACGTAAAACCGGAGTCACCTAGTGCAG,9820 fluorescence intensity (a.u.)
20,ATCGTCCTCTGCACCTGCACACATCATCACTGGGACAACCCGGAGTCACCTAGTGCAG,8140 fluorescence intensity (a.u.)
21,CTCCTACTGCCTACCGCCGACGCAGAACTCCGTGGGTTACCGGAGTCACCTAGTGCAG,8210 fluorescence intensity (a.u.)

row,Sequence,binding signal
1,TTGGTAGTATTGCATGTTGGCTTATTTATGAATCGTGTGACGGAGTCACCTAGTGCAG,8490 fluorescence intensity (a.u.)
2,GACTTAACTATGCAAACAGCTTATAGAATATTTCCATGGTCGGAGTCACCTAGTGCAG,8090 fluorescence intensity (a.u.)
3,GCTTGTTTGTCAACTTGGCATTAATCACATTAGTTATATTCGGAGTCACCTAGTGCAG,9110 fluorescence intensity (a.u.)
4,AACCACCTCACCGCCGACGACCTCATCCTCGTCGGCGCCGCGGAGTCACCTAGTGCAG,8990 fluorescence intensity (a.u.)
5,CTGTATTATGGTGCTTTCACATTTTTTTTCTAGTCTGCCACGGAGTCACCTAGTGCAG,8370 fluorescence intensity (a.u.)
6,AAAGCTGCGATTTTTTTTTCCTTCTCTCGCCGCCCGCGCGCGGAGTCACCTAGTGCAG,8780 fluorescence intensity (a.u.)
7,AGTTACTCTTATTGTTTACTGGTTCATTTTGTTTCTTCTTCGGAGTCACCTAGTGCAG,11900 fluorescence intensity (a.u.)
8,GGCACCGTATCGCGTTCACAATTTTTCGCGCAGACCTCCACGGAGTCACCTAGTGCAG,8600 fluorescence intensity (a.u.)
9,AATTTTTGTGTGCAGCTGACATGTGGGGCCACGCTTTTTACGGAGTCACCTAGTGCAG,11500 fluorescence intensity (a.u.)
10,CACATCCTCATCCCTGTGAACAAACACGTACATATACCCTCGGAGTCACCTAGTGCAG,8690 fluorescence intensity (a.u.)
11,AGAATTGGATCAACCTTGTCACAGATCTGCCGTGTAGTTTCGGAGTCACCTAGTGCAG,8410 fluorescence intensity (a.u.)
12,TTTGCCTTTTTTTTTTCTCTTGCTGTGGAGACCCGACCACCGGAGTCACCTAGTGCAG,9170 fluorescence intensity (a.u.)
13,ACAATCTCCATAATTTTGATCTCCTATTAGTATCTCCTTACGGAGTCACCTAGTGCAG,8680 fluorescence intensity (a.u.)
14,TGTTGCTGTTGCTGCTGTGAAGAGCCGGGAGGGGTTGACGCGGAGTCACCTAGTGCAG,8700 fluorescence intensity (a.u.)
15,CCCTTCACCACCGGTTTCGGTTCGTCGGCACCAAGCCCCTCGGAGTCACCTAGTGCAG,8850 fluorescence intensity (a.u.)
16,GAGTGGAGAGGAAAGAGCAGGAGTTGACCATGAACTAGTCCGGAGTCACCTAGTGCAG,8520 fluorescence intensity (a.u.)
17,CCGCCGCCGCCGCCGCCGACCTTGTCACTCCGGCCGCTGCCGGAGTCACCTAGTGCAG,9390 fluorescence intensity (a.u.)
18,TTCTACCCCTCGCCGAGTCGCCGTATAAAACACCCAAACTCGGAGTCACCTAGTGCAG,8050 fluorescence intensity (a.u.)
19,ATCCCAGCATTCAGCTATAACAGGCTTAATCACCTTTTCTCGGAGTCACCTAGTGCAG,8440 fluorescence intensity (a.u.)
20,GGTTTAGTTCTCAAATTTTTCTTCAAACTTTTAACTTTTCCGGAGTCACCTAGTGCAG,8330 fluorescence intensity (a.u.)
21,TTCCAGCCGATGTACACCCCAGCCAATATCTTCGCAGCCACGGAGTCACCTAGTGCAG,9890 fluorescence intensity (a.u.)

# In another format: results already given
row | Sequence | binding signal
9 | AATTTTTGTGTGCAGCTGACATGTGGGGCCACGCTTTTTACGGAGTCACCTAGTGCAG | 11500 fluorescence intensity (a.u.)
10 | CACATCCTCATCCCTGTGAACAAACACGTACATATACCCTCGGAGTCACCTAGTGCAG | 8690 fluorescence intensity (a.u.)
